Experiment: general procedure: Fmoc solid-phase peptide synthesis; carrier resin to which Fmoc-Trp (Fmoc-Phe, Fmoc-D-Trp) was bound; PyBOP/HOBt/NMM (fragment condensations)
Details: whole synthesis, scale 10.2 μmol

Row | Substance | crude mass [mg] | isolated mass [mg]
1 | HGlyAsnTrpHisGlyThrAlaProAspTrpValTyrPheAlaHisLeuAspIleIlePheOH | 41.6 | 16.6

Same assay, conditions: whole synthesis, scale 10.4 μmol

Row | Substance | crude mass [mg] | isolated mass [mg]
2 | HGlyAsnTrpHisGlyThrAlaProAspTrpValTyrD-PheAlaHisLeuSerMetIleTrpOH | 29.0 | 9.5
3 | HGlyAsnTrPHisGlyThrAlaProAspAlaValTyrPheAlaHisLeuAspIleIleTrpOH | 42.0 | 16.6
4 | HGlyAspTrpLysGlyThrSerProAspTrpValTyrPheAlaHisLeuAsplleIleTrpOH | 26.8 | 6.3
5 | HTrpHisGlyThrAlaProAspTrpValTyrPheAlaHisLeuAspIleIleTrpOH | 24.9 | 8.7
6 | HHisGlyThrAlaProAspTrpValTyrPheAlaHisLeuAspIleIleTrpOH | 24.7 | 11.5
7 | HCysAsnTrpHisGlyThrAlaProCysTrpValTyrPheAlaHisLeuAspIleIleTrpOH | 39.5 | 
8 | HGlyAsnTrpHisGlyThrAlaProAspTrpPheAlaHisLeuAspIleIleTrpOH | 42.7 | 10.3
9 | HGlyAsnTrpHisGlyThrAlaProAspTrpValTyrPheAlaHisLeuGluIleIleTrpOH | 25.8 | 8.6
10 | HGlyAsnTrpHisGlyThrAlaProAspTrpTyrPheAlaHisLeuAspIleIleTrpOH | 43.4 | 5.8
11 | HGlyAsnTrpHisGlyThrAlaProAspTrpValTyrPheAlaHisLeuThrThiIleD-TrpOH | 26.5 | 8.8
12 | HGlyAsnTrpHisThrThrAlaProAspTrpValTyrPheAlaHisLeuAspIleleTrpOH | 39.4 | 17.9
13 | HGlyAsnTrpHisGlyGlyAlaProAspTrpValTyrPheAlaHisLeuAspIleIleTrpOH | 41.5 | 21.3
14 | HAsnTrpHisGlyThrAlaProAspTrpValTyrPheAlaHisLeuAspIleIleTrpOH | 29.3 | 4.6
15 | HGlyAsnTrpHisGlyThrAlaProAspTrpValTyrPheAlaHisLeuThrLeuIleTrpOH | 29.4 | 14.1
16 | HGlyAsnTrpHisGlyThrAlaProAspTrpValTyrPheAlaD-TrpNvaGluIleD-IleTrpOH | 27.3 | 9.1
17 | HGlyAsnTrpHisGlyThrAlaAlaAspTrpValTyrPheAlaHisLeuSerMetIleTrpOH | 25.8 | 7.4

Same assay, conditions: whole synthesis, scale 12.6 μmol

Row | Substance | crude mass [mg] | isolated mass [mg]
18 | HCysAsnTrpHisGlyThrAlaProCysTrpValTyrPheAlaHisLeuThrLeuIleTrpOH | 35.1 | 
19 | HCysAsnTrpHisGlyThrAlaProCysTrpValTyrPheAlaHisLeuThrChaIleTrpOH | 34.2 | 
20 | HGlyAsnTrpHisGlyThrAlaProAspTrpValTyrPheAlaHisLeuSerMetIleTrpOH | 22.9 | 6.5
21 | HGlyAsnTrpHisGlyThrAlaProAspTrpValTyrPheAlaHisLeuThrMetIleTrpOH | 29.9 | 7.1
22 | HGlyAsnTrpHisGlyThrAlaProAspTrpValTyrPheAlaHisLeuThrAbuIleTrpOH |  | 5.2
23 | HGlyAsnTrpHisGlyThrAlaProAspTrpValTyrPheAlaHisLeuAspLeuIleTrpOH |  | 8.2
24 | HGlyAsnTrpHisGlyThrAlaProAspTrpValTyrPheAlaHisLeuThrChaIleTrpOH |  | 6.3
25 | HGlyAsnTrpHisGlyThrAlaProAspTrpValTyrPheAlaHisLeuThrThiIleTrpOH | 31.3 | 7.6
26 | HGlyAsnTrpHisGlyThrAlaProAspTrpValTyrPheAlaHisLeuThrTyrIleTrpOH | 23.7 | 7.4
27 | HGlyAsnTrpHisGlyThrAlaProAspTrpValTyrPheAlaHisLeuAsnTyrIleTrpOH | 28.4 | 13.8

Same assay, conditions: whole synthesis, scale 15.6 μmol

Row | Substance | crude mass [mg] | isolated mass [mg]
28 | HTrpValTyrPheAlaHisLeuAspIleIleTrpOH | 40.5 | 10.9

Same assay, conditions: whole synthesis, scale 18.0 μmol

Row | Substance | crude mass [mg]
29 | HCysAsnTrpLysGlyThrSerProCysTrpValTyrPheAlaHisLeuThrThiIleTrpOH | 51.5

Same assay, conditions: whole synthesis, scale 18.9 μmol

Row | Substance | crude mass [mg] | isolated mass [mg]
30 | HGlyAsnTrpHisGlyThrAlaProAspTrpValTyrPheAlaHisLeuThrThiD-IleTrpOH | 49.5 | 17.9
31 | HGlyAsnTrpHisGlyThrAlaProAspTrpValTyrPheAlaHisLeuThrNleIleTrpOH | 30.3 | 5.5
32 | HGlyAsnTrpHisGlyThrAlaProAspTrpValTyrPheAlaHisLeuGlyThiIleTrpOH | 57.5 | 15.0
33 | HGlyAsnTrpHisGlyThrAlaProAspTrpValTyrPheAlaD-TrpLeuThrThiIleTrpOH | 41.0 | 15.7
34 | HGlyAsnTrpHisGlyThrAlaProAspTrpValTyrPheAlaHisNvaThrThiIleTrpOH | 49.3 | 12.6
35 | HGlyAsnTrpHisGlyThrAlaProAspTrpValTyrPheD-AlaHisLeuThrThiIleTrpOH | 35.0 | 7.7
36 | HGlyAsnTrpHisGlyThrAlaProAspTrpValTyrPheAlaHisLeuThrPhgIleTrpOH | 37.0 | 2.2

Same assay, conditions: whole synthesis, scale 25.2 μmol

Row | Substance | crude mass [mg] | isolated mass [mg]
37 | HGlyAsnTrpLysGlyThrSerProAspTrpValTyrPheAlaHisLeuThrThiIleTrpOH | 46.5 | 14.4

Same assay, conditions: whole synthesis, scale 30.0 μmol

Row | Substance | crude mass [mg] | isolated mass [mg]
38 | HGlyAsnTrpHisGlyThrAlaProAspTrpValTyrPheAlaHisLeuThrMeIleIleTrpOH | 28.6 | 0.6
39 | HGlyAsnTrpHisGlyThrAlaProAspTrpValTyrPheAlaHisLeuThrMeLeuIleTrpOH | 45.3 | 2.0

Source: patent publication US5631222A (Kyowa Hakko Kogyo Co., Ltd., priority 1993, dated 1997)
